# Measurements from PubChem BioAssay AID540276 (National Center for Advancing Translational Sciences (NCATS), 2011).
# About 5,400 (1.8%) of roughly 300,000 compounds were called active. This list was built around the results that the source calls inconclusive (neither active nor inactive); the mix of calls is not that of the screen. Calls come from the whole dose curve; tested in HEK293 cells. A potency beside an inconclusive call is a rough fit, not a confirmed value.
# Experiment: qHTS for inhibitors of binding or entry into cells for Marburg Virus
# Settings: Marburg virus pseudotyped entry inhibition, cell reporter; series mostly up to 37.8 µM
# Potency is the fitted concentration of half-maximal effect.
row,SMILES,Potency
1,CS(=O)(=O)N(CC(=O)N1CCN(C(c2ccccc2)c2ccccc2)CC1)C1CCCCC1,"inconclusive: 29.1 µM [inhibitor, single point]"
2,CC1=NN(c2ccc(C(F)(F)F)cn2)C(=O)C1,"inconclusive: 20 µM [inhibitor, single point]"
3,O=C(NC1CCCCC1)C(c1ccc2ncccc2c1)N(Cc1ccc(F)cc1)C(=O)c1cccs1 (centres undefined),"inconclusive: 16.4 µM [inhibitor, partial curve, poor fit]"
4,FC(F)(F)c1cccc(Cc2noc(CN3CCCCC3c3ccccn3)n2)c1 (centres undefined),"inconclusive: 35.5 µM [inhibitor, single point]"
5,O=C(NN1CCOCC1)c1ccccc1Br,inactive
6,Cc1ccc(C)c(N2CCN(C(=O)CCCOc3cc(=O)n(C)c4ccccc34)CC2)c1,"inconclusive: 29.1 µM [inhibitor, single point]"
7,COCC(C)n1c(C)cc(C(=O)CN2C(=O)NC(Cc3c[nH]c4ccccc34)C2=O)c1C (centres undefined),inactive
8,CCOc1ccccc1-c1ccc(C(=O)NCc2ccccc2)o1,inactive
9,Cc1sc(NC(=O)CSc2nnc(COc3ccccc3)n2C)c(C#N)c1C,"inconclusive: 2.31 µM [inhibitor, partial curve, poor fit]"
10,CC(Oc1cccnc1[N+](=O)[O-])C(=O)N1CCc2ccccc21 (centres undefined),inactive
11,O=C(CCc1c[nH]c2ccccc12)OCc1cccc([N+](=O)[O-])c1,inactive
12,COc1ccc(CC(=O)N/N=C/C=C/c2cccc([N+](=O)[O-])c2)cc1OC,"inconclusive: 25.1 µM [inhibitor, single point]"
13,O=C(CSc1nc2nc3c(cc2c(=O)n1-c1ccccc1)CCCC3)Nc1cccc2ccccc12,"inconclusive: 5.62 µM [inhibitor, full curve, poor fit]"
14,Cc1nc2cc(NC(=O)c3ccc(S(=O)(=O)N(C)c4ccccc4)cc3)ccc2o1,"inconclusive: 35.5 µM [inhibitor, single point]"
15,Cc1ccc(NC(=O)Cn2c(=O)oc3ccccc32)c(C)c1,inactive
16,Cc1ccc2c(c1)[nH]c1c(=O)n(CCN3CCNCC3)cnc12,"inconclusive: 35.5 µM [inhibitor, single point]"
17,COc1ccc(N=Cc2c(O)c3ccccc3oc2=O)cc1,inactive
18,Cc1ccc(C(=O)Nc2ccc(Oc3ccc(C(=O)O)c(C(=O)O)c3)cc2)cc1C,"inconclusive: 1.26 µM [inhibitor, single point]"
19,O=C(NCC1OCCc2ccccc21)c1cc(COc2c(F)cccc2F)on1 (centres undefined),"inconclusive: 35.5 µM [inhibitor, single point]"
20,CCNC(=S)Nc1sc2c(c1C#N)CCC(C)C2 (centres undefined),"inconclusive: 0.891 µM [inhibitor, partial curve, poor fit]"
21,CC(=O)NC(c1cccc([N+](=O)[O-])c1)c1c(OC(C)=O)ccc2ccccc12 (centres undefined),"inconclusive: 35.5 µM [inhibitor, single point]"
22,COc1ccc(/C=N/OCC(=O)N=Nc2c(O)[nH]c3ccc(Br)cc23)cc1OC,"inconclusive: 8.91 µM [inhibitor, partial curve, poor fit]"

# Single values from the entries so far:
# Value of `COc1ccc(/C=N/OCC(=O)N=Nc2c(O)[nH]c3ccc(Br)cc23)cc1OC` under Potency: inconclusive: 8.91 µM [inhibitor, partial curve, poor fit]
# Value of `CS(=O)(=O)N(CC(=O)N1CCN(C(c2ccccc2)c2ccccc2)CC1)C1CCCCC1` under Potency: inconclusive: 29.1 µM [inhibitor, single point]
# Value of `Cc1ccc(C)c(N2CCN(C(=O)CCCOc3cc(=O)n(C)c4ccccc34)CC2)c1` under Potency: inconclusive: 29.1 µM [inhibitor, single point]
# Value of `FC(F)(F)c1cccc(Cc2noc(CN3CCCCC3c3ccccn3)n2)c1` (centres undefined) under Potency: inconclusive: 35.5 µM [inhibitor, single point]
# Value of `COc1ccc(CC(=O)N/N=C/C=C/c2cccc([N+](=O)[O-])c2)cc1OC` under Potency: inconclusive: 25.1 µM [inhibitor, single point]

# The list continues:

row,SMILES,Potency
1,Cc1ccc(N(CC(=O)NC2CCCCC2)S(=O)(=O)c2c(C)noc2C)cc1,"inconclusive: 1.12 µM [inhibitor, full curve, poor fit]"
2,CCN(CC)c1ccc(NC(=O)Cn2c(C(C)NC(=O)c3ccc(C)cc3)nc3ccccc32)cc1 (centres undefined),"inconclusive: 15.8 µM [activator, single point]"
3,CCc1ccc(NC(=O)Cn2c(=O)n(CCC(=O)NCCc3ccc(Cl)cc3)c(=O)c3ccccc32)cc1,inactive
4,Nc1nc(SCc2ccc([N+](=O)[O-])cc2)c2ncn([C@@H]3O[C@H](CO)[C@H](O)[C@H]3O)c2n1,"inconclusive: 1.78 µM [inhibitor, full curve]"
5,CC(C)C(c1nnnn1C1CCCC1)N1CCCc2ccccc21 (centres undefined),"inconclusive: 32.6 µM [inhibitor, partial curve, poor fit]"
6,O=C(COC(=O)c1cn(-c2ccccc2)nc1-c1ccc(F)cc1)Nc1ncc(Cl)cc1Cl,"inconclusive: 35.5 µM [inhibitor, single point]"
7,O=C(COC(=O)c1cc[n+]([O-])cc1)Nc1ccc(F)c([N+](=O)[O-])c1,"inconclusive: 14.1 µM [activator, partial curve, poor fit]"
8,CSc1ncc(C(=O)Nc2ccc(C)cc2C)c(C)n1,inactive
9,Cc1cc(C)c2c(N)c3ccccc3nc2n1,"inconclusive: 18.3 µM [inhibitor, single point]"
10,Cc1nc2ccccc2n1C1CCN(C(=O)Nc2ccccc2)CC1,inactive
11,CCCCS(=O)(=O)c1oc(-c2ccc(F)cc2)nc1S(=O)(=O)c1ccc(C)cc1,active: 10 µM
12,COc1ccc(CCNC(=S)NC2CCN(Cc3ccccc3)CC2)cc1OC,"inconclusive: 35.5 µM [inhibitor, single point]"
13,OCC1(Cc2cccc(C(F)(F)F)c2)CCN(Cc2cc(F)cc(F)c2)CC1,"inconclusive: 2.82 µM [inhibitor, full curve, poor fit]"
14,O=C(/C=C/C=C/c1ccccc1)CC1(O)C(=O)N(CCc2ccccc2)c2ccccc21 (centres undefined),"inconclusive: 35.5 µM [inhibitor, single point]"
15,O=C(NNc1nc(Nc2ccccc2)nc(N2CCOCC2)n1)Nc1ccc(Cl)cc1,"inconclusive: 11.2 µM [inhibitor, partial curve, poor fit]"
16,Cc1ccc(/C=C2\C(=O)NC(=O)N(CCc3ccc(F)cc3)C2=O)o1,inactive
17,N#CCOC(=O)/C=C/c1ccc2c(c1)OCO2,"inconclusive: 35.5 µM [inhibitor, single point]"
18,Cc1ccc2nc3c(cc(C(=O)NCC4CCCO4)c(=N)n3CCCOC(C)C)c(=O)n2c1 (centres undefined),"inconclusive: 23.1 µM [inhibitor, single point]"
19,CCN(CC)c1ccc(/C=C/C(=O)C2C(=O)C=C(C)OC2=O)cc1 (centres undefined),"inconclusive: 8.91 µM [activator, partial curve]"
20,CCC12CN3CCN(CC(C3)/C1=N\NC(=O)c1ccc(F)cc1)C2,"inconclusive: 1.58 µM [activator, partial curve, poor fit]"
21,O=C(NNS(=O)(=O)c1ccc(Cl)cc1)c1sccc1-n1cccc1,inactive
22,COc1cc(/C=N/NC(=S)Nc2cccc(C(=O)O)c2)ccc1O,"inconclusive: 1.46 µM [inhibitor, full curve, poor fit]"

row,SMILES,Potency
1,COC(=O)c1cc(C)sc1NC(=O)C1CC(=O)NN1Cc1ccccc1 (centres undefined),inactive
2,O=C(Nc1ccc2c(c1)CCC2)c1ccc(F)c(S(=O)(=O)N2CCOCC2)c1,"inconclusive: 35.5 µM [inhibitor, single point]"
3,CCCCOc1ccc(S(=O)(=O)n2c(C)nc3ccccc32)cc1,"inconclusive: 18.3 µM [inhibitor, single point]"
4,Cc1cc(C)cc(-n2nnnc2SCC(=O)Nc2nc(-c3ccc(Cl)cc3)cs2)c1,"inconclusive: 20.6 µM [inhibitor, partial curve, poor fit]"
5,CCC(C)(C)NC(=O)C(c1cccc(OC)c1OC)N(CCC(C)C)C(=O)CCC(=O)Nc1cc(C)on1 (centres undefined),"inconclusive: 1.46 µM [inhibitor, full curve]"
6,COc1cc2ccccc2cc1C(=O)N1CCc2ccccc21,"inconclusive: 35.5 µM [inhibitor, single point]"
7,Cc1ccc(/C=C/C(=O)Nc2ccccc2C(N)=O)o1,"inconclusive: 3.98 µM [activator, single point]"
8,CC(C)CNC(=O)NC1(C(F)(F)F)Oc2ccccc2O1,"inconclusive: 22.4 µM [inhibitor, single point]"
9,C[C@]12CC[C@H](OS(=O)(=O)O)CC1=CCC1C2CC[C@]2(C)C(=O)CC[C@@H]12 (some centres undefined),"inconclusive: 6.31 µM [inhibitor, single point]"
10,O=C(Cc1ccccc1)Nc1cccc(NC(=O)c2cccs2)c1,"inconclusive: 29.1 µM [inhibitor, single point]"
11,CCOc1ccccc1Nc1cc(C)nc2ccc(C)cc12,"inconclusive: 15.8 µM [inhibitor, partial curve, poor fit]"
12,O=C(Nc1nc2ccc(SC(F)F)cc2s1)c1ccc(NS(=O)(=O)c2ccc(F)c(F)c2)cc1,inactive
13,CC(C)(C)c1cc(C(F)(F)F)nc(SCCCNC(=O)c2ccco2)n1,"inconclusive: 31.6 µM [inhibitor, single point]"
14,CC(=O)SC(C[N+](=O)[O-])c1cn(C(C)=O)c2ccccc12 (centres undefined),inactive
15,O=C(NCc1ccco1)c1ccc2c(c1)N(Cc1ccc(F)cc1)C(=O)c1ccccc1S2(=O)=O,"inconclusive: 35.5 µM [inhibitor, single point]"
16,CCCCN1C(=O)C(O)(CC(=O)c2ccc(C)cc2C)c2cc(Br)ccc21 (centres undefined),"inconclusive: 22.4 µM [inhibitor, partial curve, poor fit]"
17,COc1ccccc1CC(=O)Nc1ccc2[nH]ncc2c1,"inconclusive: 3.98 µM [inhibitor, single point]"
18,Cc1ccc(-n2cc(-c3ccc([N+](=O)[O-])cc3)[nH]c2=S)c(C)c1,inactive
19,CCOc1cccc(C(=O)Nc2nc3c(s2)CC(C(C)(C)C)CC3)c1 (centres undefined),"inconclusive: 17.8 µM [activator, partial curve, poor fit]"
20,CN1\C(=C/C=C/C=C/C=[N+](C)C)C(C)(C)c2ccccc21,"inconclusive: 25.9 µM [inhibitor, partial curve, poor fit]"
